Values of other authors in US20240269109A1 (STICHTING MEDISCHE KLINIEK VELSEN, priority 2021, published 2024).
Values joined by “and” are separate entries in the source; they are usually repeats but may differ in a detail not shown here. Equal entries are not always repeated.

Chains of the proteins cited; added tags and fusions are not shown. Lines headed by an entry give the natural chain unless they say otherwise; changes in a name come on top.
UniProt Q99572: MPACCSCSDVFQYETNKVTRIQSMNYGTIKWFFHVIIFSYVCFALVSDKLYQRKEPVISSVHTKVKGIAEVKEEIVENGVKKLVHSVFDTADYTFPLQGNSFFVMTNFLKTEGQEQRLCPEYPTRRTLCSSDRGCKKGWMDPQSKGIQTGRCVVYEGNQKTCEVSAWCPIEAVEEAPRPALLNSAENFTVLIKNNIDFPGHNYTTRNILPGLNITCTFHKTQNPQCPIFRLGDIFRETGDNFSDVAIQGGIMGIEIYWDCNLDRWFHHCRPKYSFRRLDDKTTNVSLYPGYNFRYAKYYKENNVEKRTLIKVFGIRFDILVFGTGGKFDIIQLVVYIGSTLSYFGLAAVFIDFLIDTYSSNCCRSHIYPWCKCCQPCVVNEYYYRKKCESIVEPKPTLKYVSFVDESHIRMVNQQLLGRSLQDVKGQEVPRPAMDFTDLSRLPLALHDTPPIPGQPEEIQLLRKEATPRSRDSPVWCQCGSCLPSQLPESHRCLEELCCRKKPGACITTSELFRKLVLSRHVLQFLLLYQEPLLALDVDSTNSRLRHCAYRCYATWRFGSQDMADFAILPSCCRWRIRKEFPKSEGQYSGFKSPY

Target: P2X7 receptor (Homo sapiens, UniProt Q99572)
Details: read-out: IC50 for blocking the P2X7 receptor (plasma concentration required); cited from earlier work

CCN(CC)CC(=O)Nc1c(C)cccc1C [lidocaine]
IC50: 300 µM and 282 µM
